Measurements as given in PMC9910797.
Results are given in words; binding and its absence hold for the method and conditions named. Some entries that bind do so weakly or less than the wild type.

Assays:
[1] = molecular target: T1, BRC-1 (C. elegans BRCA1 ortholog), full length, wild type (C. elegans) (UniProt B6VQ60); experiment: two-hybrid; BRC-1 (wild type or mutant) in pBridge in Y2HGold mated with BRD-1 in pACT2.2 in Y187; his3 reporter, serial dilutions of diploids on -His -Trp -Leu against -Trp -Leu solid media
T1 sequence: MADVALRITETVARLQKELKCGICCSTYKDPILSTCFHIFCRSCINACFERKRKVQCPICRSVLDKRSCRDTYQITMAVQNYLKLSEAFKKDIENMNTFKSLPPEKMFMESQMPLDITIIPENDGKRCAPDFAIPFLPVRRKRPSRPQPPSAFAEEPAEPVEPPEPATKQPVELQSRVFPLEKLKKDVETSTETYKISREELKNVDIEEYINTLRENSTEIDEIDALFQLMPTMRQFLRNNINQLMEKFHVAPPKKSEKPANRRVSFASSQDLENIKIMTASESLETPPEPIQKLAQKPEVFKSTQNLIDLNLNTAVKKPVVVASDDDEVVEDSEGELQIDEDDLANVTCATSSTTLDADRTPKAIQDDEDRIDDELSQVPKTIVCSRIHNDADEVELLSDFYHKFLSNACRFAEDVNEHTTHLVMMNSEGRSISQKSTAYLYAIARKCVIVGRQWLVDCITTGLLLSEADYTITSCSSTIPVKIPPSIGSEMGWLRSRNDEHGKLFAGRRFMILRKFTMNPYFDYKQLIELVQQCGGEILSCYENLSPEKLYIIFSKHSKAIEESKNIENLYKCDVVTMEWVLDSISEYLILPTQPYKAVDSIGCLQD

[2] = molecular target: T2, BRC-1^triA (I23A, I59A, R61A), full length (C. elegans) (UniProt B6VQ60); experiment: as above
T2 sequence: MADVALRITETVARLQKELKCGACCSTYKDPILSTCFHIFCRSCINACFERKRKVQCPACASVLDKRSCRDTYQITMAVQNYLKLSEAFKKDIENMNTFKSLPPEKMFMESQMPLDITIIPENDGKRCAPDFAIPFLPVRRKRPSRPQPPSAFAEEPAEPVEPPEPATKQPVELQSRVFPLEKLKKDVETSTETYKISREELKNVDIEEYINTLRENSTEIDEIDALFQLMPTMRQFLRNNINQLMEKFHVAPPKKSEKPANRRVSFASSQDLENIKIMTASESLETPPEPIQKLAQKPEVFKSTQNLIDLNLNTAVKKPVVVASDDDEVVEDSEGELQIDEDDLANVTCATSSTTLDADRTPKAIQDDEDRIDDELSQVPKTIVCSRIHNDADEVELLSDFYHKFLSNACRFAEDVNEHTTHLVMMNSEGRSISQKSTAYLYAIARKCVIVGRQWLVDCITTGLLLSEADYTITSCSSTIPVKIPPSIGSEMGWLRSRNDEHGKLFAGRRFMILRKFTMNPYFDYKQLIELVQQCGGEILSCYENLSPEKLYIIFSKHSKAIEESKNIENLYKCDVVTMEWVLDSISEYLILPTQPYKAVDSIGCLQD

binding [1]: binds | binding [2]: binds
B1: BRD-1 (C. elegans BARD1 ortholog), full length (protein, UniProt Q21209 1-702)
chain: MFENTKKALETFRTAIECVKCKKPRGDLQYLGSSCKHAYCWECIATFQQKPSGKRSSVARHMCPSCAFPLDTSKITEAHMLKTCFDTLSELNDLLQKVGTTSLTQAEFACTQNIFNKEKTPADAVEKFLETQAHMPDEMGQLGEEDDDLMCKDENRENSNSPELDIFHDYSKEASPTRNSTKRPSTVSVHERKPKRSSILKTSVKNEPAAPVVDLFASQVPQRTHQNDLLTPFIERRSTAPAATGVATYAQAFGSSSNPVKAEIIEEDIFSKAIPLTKRQASMSASAKKQPKLEPEEPEEVPSTSRSRKNSIKSDKIERRSQSPMSFGEKSMSVKSEQRRSSYGTRRGEAVLVNSIRNNRIPQLRSAVEAGTCVNEKEDGKTPLYVAVENSSLEAVKILVEAGAVINASCGSTLETTLHEAVRRQNTQIVEYLLSKGASIKIRNIAGKTVEEMAKSDPKIRKIIEKFKTEQRVLQPVVAPPKSRLHFVQLIDEKMLTESEKRKLPGKINIVPADMDSPTHVVVTVDLKTRVLNINKEHIGEILKAIIKSGMIVSRDWLRACIIDPSKVDDDRSYMVQKVRWMEGEVFENTIEQWKKTITKMQPKLFAGCKFFIPKPKYNFLDRPALFEIIRSAGGQAAAREPIIDEKDPPPYHNANLKPNFVLYSLTHDIGDKFRDCTKYNLVSEQWLIEAILGCSITTPPH
